Experimental data taken from paper PMC8384837.
Positions count from the first letter of the chain named. Some of the results follow.

What was measured:
Conditions in all cases: yeast three-hybrid, YBZ-1, SC-Leu-His + 0.5 mM 3-AT, 4 days
[1] = target: T1, PUM1 PUF domain R5-DFR C1007D + R1008F + Q1011R (Homo sapiens) (UniProt Q14671)
T1 sequence: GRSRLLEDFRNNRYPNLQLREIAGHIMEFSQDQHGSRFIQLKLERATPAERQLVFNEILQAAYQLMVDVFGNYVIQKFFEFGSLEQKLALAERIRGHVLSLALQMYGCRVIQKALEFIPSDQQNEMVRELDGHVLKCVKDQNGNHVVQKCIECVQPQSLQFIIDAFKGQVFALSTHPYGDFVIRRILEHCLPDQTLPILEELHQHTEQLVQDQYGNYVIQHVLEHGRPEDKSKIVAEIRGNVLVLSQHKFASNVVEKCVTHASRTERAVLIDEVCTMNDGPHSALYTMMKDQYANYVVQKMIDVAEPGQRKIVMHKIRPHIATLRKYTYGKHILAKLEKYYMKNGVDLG

[2] = target: T2, PUM1 PUF domain R5-EAC C1007E + R1008A + Q1011C (Homo sapiens) (UniProt Q14671)
T2 sequence: T1 sequence with D180E, F181A, R184C

[3] = target: T3, PUM1 PUF domain R5-FRC C1007F + Q1011C (Homo sapiens) (UniProt Q14671)
T3 sequence: T1 sequence with D180F, F181R, R184C

[4] = target: T4, PUM1 PUF domain R5-GYL C1007G + R1008Y + Q1011L (Homo sapiens) (UniProt Q14671)
T4 sequence: T1 sequence with D180G, F181Y, R184L

[5] = target: T5, PUM1 PUF domain R5-HRS C1007H + Q1011S (Homo sapiens) (UniProt Q14671)
T5 sequence: T1 sequence with D180H, F181R, R184S

[6] = target: T6, PUM1 PUF domain R5-KAT C1007K + R1008A + Q1011T (Homo sapiens) (UniProt Q14671)
T6 sequence: T1 sequence with D180K, F181A, R184T

[7] = target: T7, PUM1 PUF domain R5-KGN C1007K + R1008G + Q1011N (Homo sapiens) (UniProt Q14671)
T7 sequence: T1 sequence with D180K, F181G, R184N

[8] = target: T8, PUM1 PUF domain R5-KLM C1007K + R1008L + Q1011M (Homo sapiens) (UniProt Q14671)
T8 sequence: T1 sequence with D180K, F181L, R184M

[9] = target: T9, PUM1 PUF domain R5-KNS C1007K + R1008N + Q1011S (Homo sapiens) (UniProt Q14671)
T9 sequence: T1 sequence with D180K, F181N, R184S

[10] = target: T10, PUM1 PUF domain R5-KRD C1007K + Q1011D (Homo sapiens) (UniProt Q14671)
T10 sequence: T1 sequence with D180K, F181R, R184D

[11] = target: T11, PUM1 PUF domain R5-LHP C1007L + R1008H + Q1011P (Homo sapiens) (UniProt Q14671)
T11 sequence: T1 sequence with D180L, F181H, R184P

[12] = target: T12, PUM1 PUF domain R5-RCC C1007R + R1008C + Q1011C (Homo sapiens) (UniProt Q14671)
T12 sequence: T1 sequence with D180R, F181C, R184C

[13] = target: T13, PUM1 PUF domain R5-RKN C1007R + R1008K + Q1011N (Homo sapiens) (UniProt Q14671)
T13 sequence: T1 sequence with D180R, F181K, R184N

[14] = target: T14, PUM1 PUF domain R5-RNR C1007R + R1008N + Q1011R (Homo sapiens) (UniProt Q14671)
T14 sequence: T1 sequence with D180R, F181N

[15] = target: T15, PUM1 PUF domain R5-RQQ C1007R + R1008Q (Homo sapiens) (UniProt Q14671)
T15 sequence: T1 sequence with D180R, F181Q, R184Q

[16] = target: T16, PUM1 PUF domain R5-RSC C1007R + R1008S + Q1011C (Homo sapiens) (UniProt Q14671)
T16 sequence: T1 sequence with D180R, F181S, R184C

[17] = target: T17, PUM1 PUF domain R5-SAC C1007S + R1008A + Q1011C (Homo sapiens) (UniProt Q14671)
T17 sequence: T1 sequence with D180S, F181A, R184C

[18] = target: T18, PUM1 PUF domain R5-SKC C1007S + R1008K + Q1011C (Homo sapiens) (UniProt Q14671)
T18 sequence: T1 sequence with D180S, F181K, R184C

[19] = target: T19, PUM1 PUF domain R5-SKN C1007S + R1008K + Q1011N (Homo sapiens) (UniProt Q14671)
T19 sequence: T1 sequence with D180S, F181K, R184N

[20] = target: T20, PUM1 PUF domain R5-WHR C1007W + R1008H + Q1011R (Homo sapiens) (UniProt Q14671)
T20 sequence: T1 sequence with D180W, F181H

## GGCUAGAACUAGUGGAUCCCCCGGCGCCCGGCGGCUCGAGCCCGGGUAAGUGUAAAUAGUCUGCAUGCCGCCGGGCGCCAUGCCUGCAGGUCGACUCUAGAAAACAUG
[1]
  binding signal (log2 enrichment (interaction score)): 0.49
[2]
  binding signal (log2 enrichment (interaction score)): 0.47
[3]
  binding signal (log2 enrichment (interaction score)): 0.54
[4]
  binding signal (log2 enrichment (interaction score)): 0.6
[5]
  binding signal (log2 enrichment (interaction score)): 0.92
[6]
  binding signal (log2 enrichment (interaction score)): 0.89
[7]
  binding signal (log2 enrichment (interaction score)): 1.02
[8]
  binding signal (log2 enrichment (interaction score)): 0.48
[9]
  binding signal (log2 enrichment (interaction score)): 0.52
[10]
  binding signal (log2 enrichment (interaction score)): 0.59
[11]
  binding signal (log2 enrichment (interaction score)): 0.45
[12]
  binding signal (log2 enrichment (interaction score)): 0.67
[13]
  binding signal (log2 enrichment (interaction score)): 0.58
[14]
  binding signal (log2 enrichment (interaction score)): 0.78
[15]
  binding signal (log2 enrichment (interaction score)): 0.95
[16]
  binding signal (log2 enrichment (interaction score)): 0.48
[17]
  binding signal (log2 enrichment (interaction score)): -0.06
[18]
  binding signal (log2 enrichment (interaction score)): 0.47
[19]
  binding signal (log2 enrichment (interaction score)): 0.83
[20]
  binding signal (log2 enrichment (interaction score)): 1.02
